No constants are given. Whether binding was seen depends on the method and setting. Binding seen in cells or lysates may run through a third protein. Some results given as binding are weak or reduced against the parent protein; the word gives no strength. Blank lines part the entries; values can stand above or below the molecule they belong to.
Assays:
[1] = target: T1, Receptor interacting protein serine/threonine kinase 4 (RIPK4) (human (endogenous in BGC-823 and AGS)) (UniProt P57078); test: co-IP; endogenous proteins, co-immunoprecipitation with anti-RIPK4 or anti-TRIM25 antibodies in BGC-823 cells; also in si-NC or si-1 (LINC01537 knock-down) BGC-823 cells
T1 sequence: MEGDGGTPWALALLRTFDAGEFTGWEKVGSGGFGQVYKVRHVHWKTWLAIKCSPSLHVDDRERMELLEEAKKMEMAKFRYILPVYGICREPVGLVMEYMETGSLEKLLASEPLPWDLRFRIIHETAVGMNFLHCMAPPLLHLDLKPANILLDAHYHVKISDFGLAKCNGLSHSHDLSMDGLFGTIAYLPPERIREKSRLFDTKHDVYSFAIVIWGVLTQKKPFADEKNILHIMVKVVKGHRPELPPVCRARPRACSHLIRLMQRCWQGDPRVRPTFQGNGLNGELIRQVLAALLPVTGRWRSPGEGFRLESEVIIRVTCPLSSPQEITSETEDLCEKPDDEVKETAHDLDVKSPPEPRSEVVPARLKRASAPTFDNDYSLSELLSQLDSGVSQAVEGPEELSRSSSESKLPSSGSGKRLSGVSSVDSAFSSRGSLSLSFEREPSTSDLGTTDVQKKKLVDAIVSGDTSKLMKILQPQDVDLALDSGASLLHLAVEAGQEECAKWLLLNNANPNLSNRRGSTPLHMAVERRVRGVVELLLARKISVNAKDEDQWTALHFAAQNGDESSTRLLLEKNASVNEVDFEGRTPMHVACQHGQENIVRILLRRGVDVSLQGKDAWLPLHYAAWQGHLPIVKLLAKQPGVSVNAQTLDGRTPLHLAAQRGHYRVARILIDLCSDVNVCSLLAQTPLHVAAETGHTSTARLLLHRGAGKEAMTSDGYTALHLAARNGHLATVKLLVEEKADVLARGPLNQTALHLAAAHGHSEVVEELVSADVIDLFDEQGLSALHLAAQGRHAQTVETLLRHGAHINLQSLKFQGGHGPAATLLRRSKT

By UniProt entry, the sequences of proteins in these tests, tags left out.
UniProt Q14258: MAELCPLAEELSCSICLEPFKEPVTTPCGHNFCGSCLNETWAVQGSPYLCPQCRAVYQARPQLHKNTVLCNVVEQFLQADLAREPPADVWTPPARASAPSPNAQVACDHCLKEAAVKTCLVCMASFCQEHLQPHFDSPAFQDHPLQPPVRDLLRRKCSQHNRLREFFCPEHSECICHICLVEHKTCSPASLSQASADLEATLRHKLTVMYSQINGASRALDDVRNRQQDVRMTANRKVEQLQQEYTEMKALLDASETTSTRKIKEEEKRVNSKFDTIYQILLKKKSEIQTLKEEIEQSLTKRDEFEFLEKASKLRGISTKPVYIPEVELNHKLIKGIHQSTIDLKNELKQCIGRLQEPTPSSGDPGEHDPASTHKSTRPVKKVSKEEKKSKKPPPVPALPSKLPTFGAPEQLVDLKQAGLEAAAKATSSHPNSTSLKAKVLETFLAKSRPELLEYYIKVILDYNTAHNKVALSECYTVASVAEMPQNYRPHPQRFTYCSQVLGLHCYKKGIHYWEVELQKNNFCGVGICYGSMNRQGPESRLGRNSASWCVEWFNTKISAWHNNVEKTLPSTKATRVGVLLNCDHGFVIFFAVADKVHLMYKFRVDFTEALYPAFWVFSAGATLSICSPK

[2] = target: TRIM25 (human (endogenous in BGC-823 and AGS)) (UniProt Q14258); test: as above

- binding [1]: binds
Molecule: TRIM25 (from UniProt Q14258 1-630)

- binding [2]: binds
B1: Receptor interacting protein serine/threonine kinase 4 (RIPK4) (protein, UniProt P57078 1-832)
chain: T1 sequence
